This is an account of results in patent US20070003551A1.

No constants are given. Whether binding was seen depends on the method and setting. Binding can be weak; no strength is given.

Assay [1] has as its target purified human platelet glycoprotein IIb/IIIa (human). Put plainly: phage ELISA on coated purified GPIIb/IIIa (2 ug/ml). (ELISA stands for enzyme-linked immunosorbent assay.)
Assay [2] shares this target. The experiment in a line: Western blot of non-reduced purified human platelet GPIIb/IIIa.

B1: Fab-expressing phage clone S4 (Fab, V domains shown)
VH: VQLLEESGGGLVQPGGSLRLSCTASRFTLSTYEMNWVRQAPGKGLEWVSYISTSGGIMYYADSVRGRFTISRDNAKNSLYLQMNSLRAEDTALYYCATVTLDGNNPFENWGQGTLVT
VL: AAELTQSPLSLSVTLGQPASIACKSSHSLARSDGVSLMNWVHLRPGRSPRRLIYDVSKRENGVPDRFSGSGSGTDFTLEINRVEAEDVGLYYCLQYAHWPHTFGQGTKLEIKR
With B1, the binding entry in assay [1] and in assay [2] was “binds” each time.
